# In US20170073733A1, “CARBAPENEMASE AND ANTIBACTERIAL TREATMENT” (priority 2014, published 2017):
# At least one structure is not confirmed: it was looked up by name or label, or the drawing left a doubt.
# System: E. cloacae FRI-1
# Format: cell-based, Enterobacter cloacae
# Conditions: susceptibility testing, FIG. 1 and FIG. 2
# Procedure: Identification of Enterobacter cloacae FRI-1 was performed by using the API 20E system (bioMérieux, Marcy l'Etoile, France). E. coli TOP10 was used as host strain for cloning and E. coli J53 (resistant to azide) as host for conjugation assays.
# The antimicrobial agents and their sources have been described elsewhere. Susceptibility testing was performed by disk diffusion assay (Sanofi-Diagnostic Pasteur, Marnes-la-Coquette, France), as previously described. The minimal inhibitory concentrations (MICs) were determined by Etest (AB biodisk; Solna, Sweden) on Mueller-Hinton agar plates at 37° C. Results of susceptibility testing were recorded according to the CLSI guidelines. MBL detection tests were performed using an E-test strip (AB Biodisk).
compound,measurement,value
C[C@@H](O)[C@H]1C(=O)N2C(C(=O)O)=C(SCCN=CN)C[C@H]12 [Imipenem],Susceptibility of isolate E. cloacae FRI-1 (in words),resistant or had a decreased susceptibility
